Data reported in PubChem BioAssay AID504467 (National Center for Advancing Translational Sciences (NCATS), 2011).
The campaign covered roughly 330,000 compounds. About 7,700 (2.3%) were called active. Inconclusive results, whose numbers are uncertain, are shown with a selection of clear calls. The call rests on the fitted dose curve; in most records, active means well fitted inhibition curve with a large enough effect; inconclusive means small, poorly fitted or top-dose-only effect, or effect the other way; inactive means flat fitted curve, though single readings scatter. A potency beside an inconclusive call is a rough fit, not a confirmed value.

Experiment: qHTS screen for small molecules that inhibit ELG1-dependent DNA repair in human embryonic kidney (HEK293T) cells expressing luciferase-tagged ELG1; further: nearly all actives have a fitted effect of over 55% in size
Settings: HEK293T ELG1-luciferase reporter, luminescence, 16 h, DNA damage induced by 5-fluorouridine; series mostly up to 46.1 µM
Procedure, shortened: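 HEK293T cells expressing luciferase-tagged ELG1 (2,000/well) received 5-Fluorouridine plus compound or DMSO for 16 hr at 37 °C. Luciferase was read by ONE-Glo luminescence after 30 min at room temperature.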
Potency means the concentration at half of the fitted maximal effect.

| SMILES | Potency |
| --- | --- |
| O=[N+]([O-])c1cc(S(=O)(=O)N2CCCC2)ccc1OCc1ccccc1 | inconclusive: 29.1 µM [inhibitor, single point] |
| COC(=O)C/C=C/[C@@H](C)[C@@H](/C=N/O[C@@H](C)c1cn([C@H](CO)Cc2ccccc2)nn1)NS(=O)(=O)c1ccc(C)cc1 | inactive |
| Cc1cccc(N2C(=NC(=O)c3ccccc3)SC3CS(=O)(=O)CC32)c1 (stereo unspecified) | inactive |
| O=C(O)c1nn(CCOc2ccc(Cl)cc2Cl)c(=O)c2ccccc12 | inconclusive: 2.91 µM [inhibitor, partial curve] |
| CCn1c(NCc2ccc3c(c2)OCO3)nc2ccccc21 | inconclusive: 31.6 µM [activator, single point] |
| CC1CCCCC1NC(=O)CCCCCn1c(=S)[nH]c2ccsc2c1=O (stereo unspecified) | inactive |
| CC1CCN(C(C)C(=O)Nc2ccccc2-c2ccccc2)CC1 (stereo unspecified) | inactive |
| CCOC(=O)c1[nH]ncc1CN1CCC(Cc2cccc(OC)c2)(C(=O)OCC)CC1 | inactive |
| CCCOC(=O)c1ccc(NC(=O)C2C3C=CC(O3)C2C(=O)O)cc1 (stereo unspecified) | inconclusive: 12.6 µM [activator, single point] |
| Cc1cccc2cc(/C=C3\N=C(c4ccccc4)OC3=O)c(N3CCOCC3)nc12 | inactive |
| COc1ccc(CCNC(=O)Cn2c(=O)n(-c3cc(F)ccc3F)c(=O)c3sccc32)cc1OC | inconclusive: 29.1 µM [inhibitor, single point] |
| CCOc1ccc(-n2c(C)nc3cc(C(=O)NCc4ccc5c(c4)OCO5)ccc32)cc1 | inactive |
| CCc1cccc(CC)c1NC(=O)CN1C2CCCC1CC(NC(=O)Nc1cccc(OC)c1)C2 (stereo unspecified) | inconclusive: 20.6 µM [inhibitor, single point] |
| O=C(CSc1nccc(=O)[nH]1)NCc1ccc(Cl)cc1 | inactive |
| O=C1N/C(=C/c2ccc(N3CCOCC3)o2)C(=O)N1c1ccccc1 | inconclusive: 29.1 µM [inhibitor, single point] |
| CCCn1c(SC(C)C(=O)NCC2CCCO2)nc2cc(Cl)ccc2c1=O (stereo unspecified) | inconclusive: 35.5 µM [inhibitor, single point] |
| O=C(O)c1ccc(-c2ccc(/C=c3/sc4nc5ccccc5n4c3=O)o2)cc1Cl | inactive |
| CCCCCCc1cc2cc(C(=O)Nc3ccccc3)c(=O)oc2cc1O | inconclusive: 2.31 µM [inhibitor, partial curve] |
| COc1ccc(Cl)cc1NC(=O)CN(C)CC(=O)NC(C)c1ccccc1 (stereo unspecified) | inconclusive: 29.1 µM [inhibitor, single point] |
| Cc1ccc(NC(=O)C2CCN(C(=O)c3ccc(Cl)cc3)CC2)nc1 | inconclusive: 1.03 µM [inhibitor, single point] |
| CC1CCc2sc(C(=O)NCC3CCCO3)cc2C1 (stereo unspecified) | inconclusive: 11.6 µM [activator, partial curve] |
| Cn1cc(/C=C/c2cc[n+](C)cc2)c2cc(F)ccc21 | inconclusive: 25.9 µM [inhibitor, single point] |
| COCn1c(COc2ccccc2)nc2ccccc21 | inconclusive: 18.4 µM [activator, partial curve] |

| SMILES | Potency |
| --- | --- |
| Cc1csc2nc(CNC(=O)C3CCCCC3)cn12 | inconclusive: 20.6 µM [activator, partial curve, poor fit] |
| O=C(/C=C/c1ccccc1)NC(NC(=S)Nc1cccc(Cl)c1)C(Cl)(Cl)Cl (stereo unspecified) | inconclusive: 29.1 µM [inhibitor, single point] |
| Cc1ccccc1N(C(=O)CNC(=O)c1ccco1)C(C(=O)NC1CCCCC1)c1cccnc1 (stereo unspecified) | inactive |
| O=C1/C(=C/c2ccccc2O)SC(=S)N1Cc1cccnc1 | inactive |
| CC(C)CSc1nc2ccccc2[nH]1 | inconclusive: 4.11 µM [activator, single point] |
| Cc1c(C=O)c2ccccn2c1C(=O)c1cccc([N+](=O)[O-])c1 | inconclusive: 25.9 µM [inhibitor, partial curve, poor fit] |
| CN(C)CCn1c2c(c(SCC(=O)NCc3ccccc3)nc1=O)CCCC2 | inactive |
| NC(=O)CSc1nnc(NC(=O)C2CC(=O)N(c3ccc(F)cc3)C2)s1 (stereo unspecified) | inactive |
| CCN(CC)S(=O)(=O)c1ccc(Oc2ccc(S(=O)(=O)N(CC)CC)cc2)cc1 | inconclusive: 8.2 µM [inhibitor, partial curve, poor fit] |
| O=C(c1ccc(Cl)cc1)N1CCCCC(Sc2nnc(-c3ccc4c(c3)OCO4)o2)C1=O (stereo unspecified) | inconclusive: 0.164 µM [activator, partial curve] |
| Nc1nnnn1/N=C/C(Br)=C/c1ccccc1 | inconclusive: 20.6 µM [inhibitor, single point] |
| CC(Sc1n[nH]c(-c2cccs2)n1)C(=O)N1CCCC1 (stereo unspecified) | inactive |
| COCCCn1c(-c2ccc(S(=O)(=O)N3CCOCC3)cc2)csc1=Nc1ccccc1 | active: 6.51 µM |
| COc1cc(/C=N/NC(=S)NCC2CCCO2)cc(OC)c1OC (stereo unspecified) | inactive |
| CCOc1cc(C)ccc1OCc1nnc(SCC(=O)c2cccc([N+](=O)[O-])c2)n1C | inconclusive: 6.51 µM [inhibitor, partial curve, poor fit] |
| COC(C/C=C/[C@H](O)COCc1ccccc1)OC | inconclusive: 10.3 µM [activator, partial curve, poor fit] |
| CC1CC1C(=O)Nc1ccc(-c2ccccc2)cc1 (stereo unspecified) | inconclusive: 5.8 µM [activator, partial curve] |
| COc1cccc(CCNS(=O)(=O)CCNC(=O)c2cccc(OC)c2)c1 | inactive |
| O=C(NCCC1=CCCCC1)C(=O)NCc1ccccc1 | inconclusive: 16.4 µM [activator, partial curve] |
| COc1ccccc1NC(=O)c1ccc(NC(=O)CN2C(=O)CN(C)C2=O)cc1 | inactive |
| O=C(Nc1nnc(SCc2cccc(F)c2)s1)c1ccco1 | inconclusive: 13 µM [activator, partial curve] |
| CN(CC1CCN(CCc2cccc(C(F)(F)F)c2)CC1)C(=O)c1ccc(F)cc1F | inactive |
| CCN1CCN(CCCNC(=O)C2CCN(c3nnc(-n4cccc4)s3)CC2)CC1 | inconclusive: 29.1 µM [activator, partial curve, poor fit] |

Compounds shown so far that contain an NH in an aromatic ring:

| SMILES | Potency |
| --- | --- |
| CC1CCCCC1NC(=O)CCCCCn1c(=S)[nH]c2ccsc2c1=O (stereo unspecified) | inactive |
| CCOC(=O)c1[nH]ncc1CN1CCC(Cc2cccc(OC)c2)(C(=O)OCC)CC1 | inactive |
| O=C(CSc1nccc(=O)[nH]1)NCc1ccc(Cl)cc1 | inactive |
| CC(C)CSc1nc2ccccc2[nH]1 | inconclusive: 4.11 µM [activator, single point] |
| CC(Sc1n[nH]c(-c2cccs2)n1)C(=O)N1CCCC1 (stereo unspecified) | inactive |
